## Results of single-concentration screens

Source: ChEMBL document CHEMBL3988442, “University of Dundee, Small-Polar-MMV Screening Library” (2021).

Values are the deposited “Percent Effect”, in %.
How 0% and 100% were set is not recorded. Most values in the screen are low, and negative values occur.
This is an unselected part of the compounds tested.
Two or more numbers in one place are separate tests of the same structure; such repeats can differ widely.

Mtb cholesterol medium: 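Phenotypic screen: M. tuberculosis growth, cholesterol and DPPC medium, 4 days; the read-out is not stated. Compounds at 50 µM. Direction is inferred from retests: higher values go with more growth inhibition. Size under these conditions: about 69,000 compounds, about 370 of them at 50% or above in at least one test.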
Mtb glucose medium: 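Whole-cell growth test on Mycobacterium tuberculosis, read after 3 days in glucose-containing 7H9 medium; the read-out is not stated. Tested at 50 µM. Higher reads as more growth inhibition (inferred: compounds with an IC50 in retests scored well above the rest). Of about 69,000 compounds tested this way, about 760 (1.1%) reached 50% or more in at least one test.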

With CCn1nc(C)c(-c2cncn2CCN(C)C2CCCC2)c1C.Cl the screen gave Mtb cholesterol medium: 12.55%; Mtb glucose medium: -3.818%. O=C(NCCNc1ncccn1)N1CCCC(C(F)(F)F)C1 (stereo not drawn) gave Mtb cholesterol medium: 8.957%; Mtb glucose medium: -16.49%. With Cc1cc2nc(C(C)C)cc(N3CCC(Oc4ncccn4)CC3)n2n1 the screen gave Mtb cholesterol medium: -17.34%; Mtb glucose medium: -11.74%. For CC(C)CCc1n[nH]c(C(=O)O)c1Cl the result was Mtb cholesterol medium: -27.32%; Mtb glucose medium: -37.45% & -8.705%. With COCC(=O)N1CC(=O)c2sc(Nc3ccc(F)cc3F)nc2C1 the screen gave Mtb cholesterol medium: -16.7%; Mtb glucose medium: -12.55%.

With CC1(c2ccccc2)CCC(=O)N(CC2(N3CCOCC3)CCCC2)C1 (stereo not drawn) the screen gave Mtb cholesterol medium: -14.53%; Mtb glucose medium: -5.922%. With Cc1nc(NC(=O)CN2CCc3c(nc(C(C)C)n3C)C2)sc1C the screen gave Mtb cholesterol medium: 23.68%; Mtb glucose medium: 9.786%. With O=C(O)C(F)(F)F.[H][C@@]12COC[C@H](C(=O)N3CCC(F)CC3)[C@]1([H])CN(C1CCOCC1)C2 the screen gave Mtb cholesterol medium: -17.72%; Mtb glucose medium: -21.87%. Cc1cc(C)n(C2CCN(C(=O)CN3C(=O)CSc4ccccc43)C2)n1 (stereo not drawn) gave Mtb cholesterol medium: -18.63%; Mtb glucose medium: 4.856%. Cc1cc(C[S+]([O-])CC(=O)Nc2c(C)cccc2C)no1 (stereo not drawn) gave Mtb cholesterol medium: 1.445%; Mtb glucose medium: 2.447%.

O=C1CSc2ccccc2N1Cc1noc(C2CCCO2)n1 (stereo not drawn) read Mtb cholesterol medium: 0.2388%; Mtb glucose medium: 7.368% & 3.047%. With CN(C)C(=O)c1cc(-c2ccc(S(C)(=O)=O)cc2)c2cnn(C)c2n1 the screen gave Mtb cholesterol medium: -2.618%; Mtb glucose medium: 4.603%. Cn1cccc1C(=O)NCc1cn2c(n1)CN(c1ncccn1)CC2 read Mtb cholesterol medium: -21.14% & -14.65%; Mtb glucose medium: -4.94%. Cc1cc(N2CCC(c3ncc[nH]3)CC2)nc(N)n1 read Mtb cholesterol medium: 3.35%; Mtb glucose medium: 1.142%. With Cc1cc(C)cc(C(=O)N2CCCN(CC(N)=O)CC2)c1 the screen gave Mtb cholesterol medium: -19.08%; Mtb glucose medium: 2.898%.

For Cn1c(Cn2cccn2)nnc1C1CCN(Cc2cccnc2N)CC1 the result was Mtb cholesterol medium: -8.738%; Mtb glucose medium: -16.71% & -15.07%. With CCC1c2ccccc2CCN1C(=O)c1ccnc(C(=O)OC)c1 (stereo not drawn) the screen gave Mtb cholesterol medium: -5.64% & 12.58%; Mtb glucose medium: -16.23% & 1.556%. NC(=O)C1CCN(C(=O)NCc2ccc(-c3ccn[nH]3)cc2)CC1 gave Mtb cholesterol medium: -12.47%; Mtb glucose medium: -26.57%. For COc1cccc(CNC(=O)c2cc(C)nc(N3CCCC3)n2)c1 the result was Mtb cholesterol medium: 1.726%; Mtb glucose medium: 7.151%. Result for CNC(=O)[C@@H]1C[C@@H](n2cc(-c3ccc(CN4CC=CC4)cc3)nn2)CN1 was Mtb cholesterol medium: -27.77%; Mtb glucose medium: -5.692% & -9.484%.

O=c1ccc(S(=O)(=O)N2CCCC2)cn1CC1CCCCO1 (stereo not drawn) read Mtb cholesterol medium: -15.75%; Mtb glucose medium: -15.72%. Result for COCCNC(=O)c1ccc2ccc(N3CCN(CC4CC4)CC3)n2c1 was Mtb cholesterol medium: 15.56%; Mtb glucose medium: -10.49%. Result for Cl.Fc1ccc(Cc2cnc(C3CCCN3)cn2)cc1 (stereo not drawn) was Mtb cholesterol medium: -15.75%; Mtb glucose medium: -7.778%. Fc1ccc(-c2cnc(C3CCNCC3)cn2)cc1 gave Mtb cholesterol medium: 22.94% & 21.92%; Mtb glucose medium: 28.07%. Result for N#Cc1cccc(CN2CC3(CCCCN3c3cncnc3)CC2=O)c1.O=C(O)C(F)(F)F (stereo not drawn) was Mtb cholesterol medium: 9.969%; Mtb glucose medium: 9.407% & -3.977%.

Result for Cc1nn(C)c(C)c1C1CCCN1Cc1nc(-c2cccs2)no1 (stereo not drawn) was Mtb cholesterol medium: 6.049%; Mtb glucose medium: 27.31% & 5.587%. CCO[C@H]1C[C@@H](O)C12CCN(C(=O)CN1CCCCCC1=O)CC2 gave Mtb cholesterol medium: 18.82%; Mtb glucose medium: -1.718%. With Cc1nc(CSc2ccc(C(F)(F)F)cn2)no1 the screen gave Mtb cholesterol medium: -4.458%; Mtb glucose medium: -6.008% & 6.718%. Result for Cc1ccccc1Cc1cnc(NC(=O)C2CNC(=O)N2)s1 (stereo not drawn) was Mtb cholesterol medium: -0.811%; Mtb glucose medium: 10.2%. For Cc1nc2c(c(N3CCN(Cc4ccco4)CC3)n1)CCNCC2 the result was Mtb cholesterol medium: 1.444%; Mtb glucose medium: 23.75% & -0.1993%.

For COc1ccccc1OCCN(C)Cc1c(C2CC2)[nH]c2ncccc12 the result was Mtb cholesterol medium: -14.14% & -25.37%; Mtb glucose medium: -15.52%.

Once more, the final 2:

* Cc1nc2c(c(N3CCN(Cc4ccco4)CC3)n1)CCNCC2 : Mtb cholesterol medium: 1.444%; Mtb glucose medium: 23.75% & -0.1993%
* COc1ccccc1OCCN(C)Cc1c(C2CC2)[nH]c2ncccc12 : Mtb cholesterol medium: -14.14% & -25.37%; Mtb glucose medium: -15.52%